Source: PubChem BioAssay AID504444 (National Center for Advancing Translational Sciences (NCATS), 2011)
About 7,500 (2.1%) of roughly 360,000 compounds were called active. The shares of active, inactive and inconclusive entries below differ from those in the screen. The call rests on the fitted dose curve; in most records, active means well fitted inhibition curve with a large enough effect; inconclusive means small, poorly fitted or top-dose-only effect, or effect the other way; inactive means flat fitted curve, though single readings scatter. Potencies of inconclusive entries are doubtful fits and often do not repeat.

Test: Nrf2 qHTS screen for inhibitors; further: nearly all actives have a fitted effect of over 60% in size
Details: A549 ARE-Fluc reporter, luciferase luminescence, 18-24 h; activity change, negative = inhibition: at 46 µM (top of the series)
Outline: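 A549 ARE_Fluc cells (5000/well, 5% FBS OPTI-MEM) pre-incubated 2 h, then treated with compounds 18-24 h at 37C/5% CO2 in concentration-response. CellTiter-Fluor viability read first; BugLite luciferase luminescence after 15 min at room temperature gives Nrf2 activity.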
On the % scale 0 is the no-effect control and ±100 the full control effect; potency means the concentration at half of the fitted maximal effect.

Row | SMILES | Potency | activity change, negative = inhibition
1 | Cc1ccc(NC(=O)c2oc3ccccc3c2COC(C)C)cc1S(=O)(=O)N1CCOCC1 | inconclusive: 29.1 µM [falling, single point] | 
2 | COc1ccccc1NC(=S)N(Cc1ccco1)Cc1cc2cccc(C)c2[nH]c1=O | inconclusive: 11.6 µM [falling, partial curve, poor fit] | 
3 | COc1ccccc1C(=O)Nc1ccc2c(c1)nc(CCNC(=O)c1ccco1)n2C | inconclusive: 2.06 µM [falling, partial curve, poor fit] | 
4 | Cc1cc(C)n2nc(C(=O)N/N=C/c3ccc(Cl)cc3)nc2n1 | inconclusive: 20.6 µM [falling, single point] | 
5 | CN(C)CCN(Cc1ccccc1)S(=O)(=O)c1csc(C(N)=O)c1 | inconclusive: 29.1 µM [activator, single point] | 
6 | Cc1n[nH]c(C)c1S(=O)(=O)N1CCCC(C(=O)N2CCN(c3ccc(Cl)cc3)CC2)C1 (centres undefined) | inconclusive: 20.6 µM [falling, partial curve, poor fit] | 
7 | CC1(c2ccc3ccccc3c2)NC(=O)N(CC(=O)NCc2cccs2)C1=O (centres undefined) | inconclusive: 14.6 µM [falling, partial curve, poor fit] | 
8 | O=C(Cn1ncn2cccc2c1=O)NCc1cccc(Br)c1 | inconclusive: 20.6 µM [activator, partial curve] | 
9 | COc1ccccc1Nc1cc2ccccc2c(=O)[nH]1 |  | inactive: 98.9%
10 | COc1ccc(N(CC(C)C)S(=O)(=O)c2nnc(NC(=O)c3ccco3)s2)cc1 | inconclusive: 29.1 µM [falling, single point] | 
11 | Cc1noc(C)c1COc1ccccc1C(=O)N(C)Cc1ccc(C(C)(C)C)cc1 | inconclusive: 29.1 µM [falling, single point] | 
12 | Cc1c(Cl)cccc1NC(=O)Cn1c(=O)cc(C)c2c(C)nn(-c3cccc(F)c3)c21 | inconclusive: 7.31 µM [activator, partial curve, poor fit] | 
13 | COc1ccc(NC(=O)c2cc(-c3ccc(F)cc3)no2)cc1OC |  | inactive: -14.3%
14 | CC(=O)c1cccc(N/C=C\C(=O)c2ccc(C)cc2)c1 | inconclusive: 1.84 µM [activator, full curve, poor fit] | 
15 | COc1ccccc1NS(=O)(=O)c1cc(NC(=O)c2ccncc2)ccc1N1CCCC1 | active: 20.6 µM | 
16 | O=C1CN(C(=O)CSc2nnnn2C2CC2)c2ccccc2N1 |  | inactive: 1.73%
17 | CCOc1ccccc1OCC(=O)OCC(=O)c1c(N)n(CC(C)C)c(=O)n(C)c1=O | inconclusive: 13 µM [falling, partial curve] | 
18 | CCOC(=O)C/C(N)=N/N(C)c1ncc(C(F)(F)F)cc1Cl | inconclusive: 29.1 µM [activator, partial curve, poor fit] | 
19 | CCCOC(=O)c1cccc(NC(=O)CSc2nnc3cc(C)c4ccccc4n23)c1 | inconclusive: 29.1 µM [falling, single point] | 
20 | O=S(=O)(c1ccc2nc(-c3ccccc3)[nH]c2c1)N1CCN(c2cccc(Cl)c2)CC1 | inconclusive: 3.66 µM [falling, partial curve, poor fit] | 
21 | O=C(O)c1ccc(O)c2ncccc12 | inconclusive: 29.1 µM [falling, single point] | 
22 | CCOC(=O)c1ccc(N2CN=C3SCC(=O)N3C2)cc1 | inconclusive: 1.46 µM [falling, partial curve] | 
23 | Cc1cc(C(=O)N/N=C2\CCCc3ccccc32)c(C)o1 | inconclusive: 20.6 µM [activator, single point] | 

Row | SMILES | Potency | activity change, negative = inhibition
24 | CC(C)OC(=O)Cn1nnc2c(cnn2-c2ccccc2)c1=O | inconclusive: 4.11 µM [activator, full curve, poor fit] | 
25 | Cc1cc(/C=N/n2cnnc2)c(C)n1-c1ccc(OCc2ccc(F)cc2)cc1 | inconclusive: 16.4 µM [falling, partial curve, poor fit] | 
26 | COc1ccc(-c2csc(NC3CCCCC3)n2)c(OC)c1 | inconclusive: 25.9 µM [activator, single point] | 
27 | O=C(Cc1ccccc1[N+](=O)[O-])NCc1ccc(Cl)cc1Cl | inconclusive: 0.92 µM [activator, full curve] | 
28 | COc1ccccc1NC(=O)Cn1c(=O)oc2cc(S(=O)(=O)NCc3ccccc3)ccc21 |  | inactive: 2.94%
29 | O=C(NCc1cccc(Cl)c1)C1CCCN(c2nn3cc(-c4ccc(F)cc4)nc3s2)C1 (centres undefined) | inconclusive: 0.517 µM [activator, full curve] | 
30 | Cc1cc(C(=O)CSc2nnc(Nc3ccccc3)s2)c(C)n1CC1CCCO1 (centres undefined) |  | inactive: -11.3%
31 | c1ccc2c(c1)[nH]c1c(N3CCC4(CC3)OCCO4)ncnc12 | active: 13 µM | 
32 | COc1ccc2[nH]c3c(=O)n(CCc4ccccc4)cnc3c2c1 |  | inactive: 6.87%
33 | CC(C)C(NS(=O)(=O)c1c(Cl)cccc1Cl)C(=O)OCC(=O)c1c[nH]c2ccccc12 (centres undefined) | active: 23.1 µM | 
34 | O=C(c1cccc(Cl)c1)N1CCCC(c2ccc(Cl)cc2)=N1 | inconclusive: 29.1 µM [falling, single point] | 
35 | Cc1cccc(N2CCN(Cc3nnc(-c4cccc(Br)c4)o3)CC2)c1C | inconclusive: 25.9 µM [falling, single point] | 
36 | COc1ccc(-n2c(SCc3ccc([N+](=O)[O-])cc3)nnc2-c2ccc(C)cc2)cc1 | inconclusive: 11.6 µM [falling, partial curve, poor fit] | 
37 | Cn1nc(C(=O)Oc2cc(=O)n(C)c3ccccc23)c2ccccc2c1=O |  | inactive: 7.78%
38 | C=CCN(CC=C)c1ncnc2[nH]ncc12 | inconclusive: 1.64 µM [falling, full curve, poor fit] | 
39 | CCCCn1c(SCC(=O)c2ccccc2)nc2sc3c(c2c1=O)CCCC3 |  | inactive: 3.25%
40 | O=C(O)c1cccc(-n2cccc2/C=C\[N+](=O)[O-])c1 |  | inactive: -1.21%
41 | c1csc(C2=NNC(=NC3CCCCC3)SC2)c1 | inconclusive: 10.3 µM [activator, partial curve] | 
42 | C[C@@H](C(=O)N1CCN(Cc2ccc3c(c2)OCO3)CC1)n1nnc2ccccc2c1=O | inconclusive: 14.6 µM [falling, partial curve, poor fit] | 
43 | CCOC(=O)C1=C(C)NC(=O)NC1c1ccc(-c2ccc(Cl)cc2)o1 (centres undefined) | inconclusive: 10.3 µM [falling, partial curve, poor fit] | 
44 | Cc1ccc(-c2nnc3c4ccccc4c(-c4ccccc4)nn23)cc1 |  | inactive: 10.5%
45 | COCCCN(C(=S)NC(=O)c1ccc(C(C)(C)C)cc1)c1c(N)n(Cc2ccccc2)c(=O)[nH]c1=O | inconclusive: 18.4 µM [falling, single point] | 
46 | Cc1ccc(NCc2cc3cc4c(cc3n(CC(=O)Nc3ccc(C)cc3)c2=O)OCCO4)cc1 | inconclusive: 16.4 µM [activator, single point] | 

Row | SMILES | Potency | activity change, negative = inhibition
47 | Cc1ccccc1/C=C1\C(=O)Nc2ccc(F)cc21 | active: 2.91 µM | 
48 | C=C(C)Cn1c(N2CCN(c3ccc(OC)cc3)CC2)nc2c1c(=O)n(C)c(=O)n2C | active: 23.1 µM | 
49 | COc1ccc([C@H]2CC(=O)C=C(c3ccccc3)C2)cc1OC |  | inactive: 1.91%
50 | CC(C)c1ccc(Nc2nc(CC(=O)O)cs2)cc1 | inconclusive: 7.31 µM [activator, partial curve] | 
51 | COC(=O)c1ccc(CSc2nnnn2Cc2ccccc2)cc1 | inconclusive: 13 µM [falling, partial curve, poor fit] | 
52 | CCc1ccccc1N(C)C(=O)c1nn(-c2ccc(OC)cc2)c(=O)c2c1c1ccccc1n2C |  | inactive: 3.83%
53 | Clc1nc(NCCc2ccccc2)c2cn[nH]c2n1 | inconclusive: 18.4 µM [falling, single point] | 
54 | Cc1cccc(N2N=C(C(=O)O)CCC2=O)c1 |  | inactive: 2.82%
55 | Cc1cccc(NC(=O)c2ccc3oc(=O)c(S(=O)(=O)c4ccc(F)cc4)cc3c2)c1C | inconclusive: 5.17 µM [activator, single point] | 
56 | CC1CCc2c(sc3nnn(Cc4ccccc4Cl)c(=O)c23)C1 (centres undefined) | inconclusive: 32.6 µM [falling, single point] | 
57 | O=C(Nc1ccc(F)c(F)c1)c1cc(S(=O)(=O)N2CCN(c3ccccn3)CC2)ccc1F | inconclusive: 13 µM [falling, partial curve, poor fit] | 
58 | CCc1cccc(NC(=O)c2cc3c(=O)oc4ccc(C)cc4c3s2)c1 |  | inactive: 14.5%
59 | Cc1ccc2nc(NC(=O)CCCc3nc4ccccc4s3)sc2c1 | inconclusive: 0.326 µM [activator, full curve] | 
60 | CCCCN(CC)C(=O)c1ccc2c(c1)NC(=O)c1ccccc1S2 | inconclusive: 29.1 µM [falling, single point] | 
61 | O=C(COC(=O)CCc1ccccc1)Nc1cc(S(=O)(=O)N2CCOCC2)ccc1N1CCCC1 |  | inactive: -6.21%
62 | CC1=CC(C)C2(COC(c3ccc[n+](C)c3)OC2)C(C)C1 (centres undefined) |  | inactive: 0.237%
63 | O=C(NCc1ccncc1)/C(=N/O)c1ccccc1 | inconclusive: 29.1 µM [activator, single point] | 
64 | Cc1ccc(S(=O)(=O)c2cn(Cc3ccccc3)c3cc(N4CCCC4)c(F)cc3c2=O)c(C)c1 |  | inactive: -14.6%
65 | CC(C)COc1cc(=O)[nH]c(SCC(C)C)n1 | inconclusive: 29.1 µM [falling, single point] | 
66 | Cc1cc(C)nc(N2CCC(C(=O)Nc3ccc4c(c3)OCO4)CC2)n1 |  | inactive: -12.8%
67 | CCOc1c(CNCCSc2nnnn2C)cccc1OC |  | inactive: 1.4%
68 | CCOc1cc(CNc2ccc(N3CCOCC3)cc2)cc(Br)c1OCC | inconclusive: 23.1 µM [falling, single point] | 
69 | Cc1ccc(-n2[nH]c(C)c(C=NCc3ccncc3)c2=O)cc1 | inconclusive: 11.6 µM [activator, partial curve] | 

14 entries out of the list, sorted by count of non-hydrogen atoms, largest number first:
Row | SMILES | Potency | activity change, negative = inhibition
61 | O=C(COC(=O)CCc1ccccc1)Nc1cc(S(=O)(=O)N2CCOCC2)ccc1N1CCCC1 |  | inactive: -6.21%
55 | Cc1cccc(NC(=O)c2ccc3oc(=O)c(S(=O)(=O)c4ccc(F)cc4)cc3c2)c1C | inconclusive: 5.17 µM [activator, single point] | 
36 | COc1ccc(-n2c(SCc3ccc([N+](=O)[O-])cc3)nnc2-c2ccc(C)cc2)cc1 | inconclusive: 11.6 µM [falling, partial curve, poor fit] | 
10 | COc1ccc(N(CC(C)C)S(=O)(=O)c2nnc(NC(=O)c3ccco3)s2)cc1 | inconclusive: 29.1 µM [falling, single point] | 
7 | CC1(c2ccc3ccccc3c2)NC(=O)N(CC(=O)NCc2cccs2)C1=O (centres undefined) | inconclusive: 14.6 µM [falling, partial curve, poor fit] | 
58 | CCc1cccc(NC(=O)c2cc3c(=O)oc4ccc(C)cc4c3s2)c1 |  | inactive: 14.5%
60 | CCCCN(CC)C(=O)c1ccc2c(c1)NC(=O)c1ccccc1S2 | inconclusive: 29.1 µM [falling, single point] | 
5 | CN(C)CCN(Cc1ccccc1)S(=O)(=O)c1csc(C(N)=O)c1 | inconclusive: 29.1 µM [activator, single point] | 
56 | CC1CCc2c(sc3nnn(Cc4ccccc4Cl)c(=O)c23)C1 (centres undefined) | inconclusive: 32.6 µM [falling, single point] | 
67 | CCOc1c(CNCCSc2nnnn2C)cccc1OC |  | inactive: 1.4%
22 | CCOC(=O)c1ccc(N2CN=C3SCC(=O)N3C2)cc1 | inconclusive: 1.46 µM [falling, partial curve] | 
63 | O=C(NCc1ccncc1)/C(=N/O)c1ccccc1 | inconclusive: 29.1 µM [activator, single point] | 
41 | c1csc(C2=NNC(=NC3CCCCC3)SC2)c1 | inconclusive: 10.3 µM [activator, partial curve] | 
38 | C=CCN(CC=C)c1ncnc2[nH]ncc12 | inconclusive: 1.64 µM [falling, full curve, poor fit] | 
